Experimental data from PubChem BioAssay AID2685 (National Center for Advancing Translational Sciences (NCATS), 2010).
This is one part of the list. These are further read-outs of the screen, such as a control signal, another cell line or another target. No call is given for them. Compounds called inactive in the main read-out are mostly missing here. The note in brackets gives the kind of curve behind each potency; many fits are weak.

Experiment: qHTS Assay for Lipid Storage Modulators in Drosophila S3 Cells;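 for cell number change: cells counted by Cell Tracker Red CMTPX staining in the red channel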
Details: BODIPY lipid droplet fluorescence, 18-24 h; for cell number change: measured here: cell count max response, cells fed with added oleic acid
Method in brief: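 Drosophila S3 cells got compounds at several concentrations plus oleic acid (400 uM solution). Laser-scanning cytometry with 488 nm excitation read lipid droplets at 500-530 nm and cells at 575-640 nm. Percent activity was relative to 20 uM Triacsin C.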

[1] = measured here: lipid fluorescence (Fed channel) AC50, cells fed with added oleic acid
[2] = measured here: cell number channel AC50, cells fed with added oleic acid

| SMILES | cell number change | AC50 [1] | AC50 [2] |
| --- | --- | --- | --- |
| Cc1cccn2c(=O)c(C=O)c(Nc3ccccc3)nc12 | 5.98% | 651 nM [falling, single point] |  |
| Cc1ccc(C(C(=O)Nc2ccc3c(c2)OCO3)N(C)C(=O)Cc2c[nH]c3ccccc23)cc1 (stereo not given) | 15.2% | 2590 nM [rising, partial curve] |  |
| CC(=O)c1cccc(CN2CCN(C3CCCC3)C(CCO)C2)c1 (stereo not given) | -5.36% | 3260 nM [falling, single point] |  |
| Cc1ccc(NC(=O)C(=O)NCC2OCCc3ccccc32)cc1 (stereo not given) | 8.19% |  | 3260 nM [rising, single point] |
| O=C(Nc1cc(Cl)ccc1Cl)C1CC(=O)N(c2ccc(Br)cc2)C1 (stereo not given) | -20% |  | 130 nM [falling, full curve, poor fit] |
| Cc1ccc(CNC(=O)c2cccnc2Cl)cc1 | -23.6% |  |  |
| O=c1c2ccccc2oc2nc(-c3cccs3)n(CCc3ccccc3)c(=O)c12 | 131% | 10300 nM [rising, partial curve, poor fit] | 16400 nM [rising, partial curve] |
| NC(=O)c1ccc(NC(=O)CS(=O)(=O)c2cn(CC(=O)N3CCCC3)c3ccccc23)cc1 |  | 7310 nM [rising, partial curve] |  |
| Cc1sc2c(c1C)C(=O)NC(c1cccc(O)c1)N2 (stereo not given) | 15.1% | 103 nM [falling, full curve, poor fit] |  |
| C/C(=N\O)c1noc(C)c1C(=O)Nc1nccs1 | -6.85% | 16400 nM [falling, single point] |  |
| COC(=O)C(C)Oc1ccc(=O)[nH]n1 (stereo not given) | -0.666% |  |  |
| N#Cc1c(NC2CCCCC2)nc(-c2ccco2)c2c1CCCC2 |  | 3260 nM [falling, partial curve] | 130 nM [falling, full curve, poor fit] |
| O=C1N/C(=C\c2nc3ccccc3s2)c2ccccc21 | 49.3% | 461 nM [rising, partial curve] | 29100 nM [rising, single point] |
| CCN(CC)CCOc1nc(C)nc2c1oc1ccccc12 | 4.99% | 1300 nM [falling, full curve] |  |
| CC(=O)c1cn(C)c(=O)[nH]c1=O | 17.4% |  |  |
| CC(C)CC(=O)Nc1nc(=S)ss1 | -21.2% | 651 nM [falling, full curve, poor fit] |  |
| Oc1ccccc1N=N/C(=N/Nc1ccccc1O)c1ccccc1 | 22.4% | 651 nM [rising, full curve, poor fit] |  |
| O=C(CNS(=O)(=O)c1ccc(F)c(Cl)c1)NCCc1ccccc1 | 16.8% | 1840 nM [rising, partial curve] | 461 nM [rising, full curve] |

3 structures from above, arranged by formula weight, high to low:

| SMILES | cell number change | AC50 [1] | AC50 [2] |
| --- | --- | --- | --- |
| NC(=O)c1ccc(NC(=O)CS(=O)(=O)c2cn(CC(=O)N3CCCC3)c3ccccc23)cc1 |  | 7310 nM [rising, partial curve] |  |
| Cc1ccc(C(C(=O)Nc2ccc3c(c2)OCO3)N(C)C(=O)Cc2c[nH]c3ccccc23)cc1 (stereo not given) | 15.2% | 2590 nM [rising, partial curve] |  |
| O=c1c2ccccc2oc2nc(-c3cccs3)n(CCc3ccccc3)c(=O)c12 | 131% | 10300 nM [rising, partial curve, poor fit] | 16400 nM [rising, partial curve] |
